PubChem BioAssay AID1508587, Peter MacCallum Cancer Centre, 2020
Shown is one part, drawn at random, of about 1,600 deposited reagents. Of all reagents, 623 (39%) got an active call. 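Calls are for each duplex; lactate ratios contain extreme outliers.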 A number with no mark means an inactive call. The numbers tell different reagents against one gene apart. Not all columns of the deposit are shown.

- Assay: 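Retest of knockdowns boosting BRAF inhibitor action on lactate release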 (follow-up of hits)
- Cells: human WM266.4 melanoma cells with a BRAF V600 mutation
- Reagent: single siRNA against human genes, 25 nM
- Timing: 96 h
- Treatment: vemurafenib 300 nM (about IC25), given 48 h after transfection for 48 h
- Read-out: 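Per-cell lactate from absorbance divided by DAPI nucleus counts, compared with and without vemurafenib, relative to non-targeting siRNA, mean of 2 replicates; nuclear counts also give cell number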
- Direction: lactate per cell, drug vs no drug: higher = less drug-induced drop in lactate per cell
- Rule for the call: 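a duplex is active when its lactate-per-cell ratio with versus without drug falls under 0.55, i.e. 2 SD below non-targeting; a gene is confirmed if 2 or more of 4 duplexes pass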

The first 3 entries, ahead of the listing:
CLCN7 #1 → lactate per cell, drug vs no drug: 0.8
CLCN7 #2 → lactate per cell, drug vs no drug: 0.6
CLCN7 #3 → lactate per cell, drug vs no drug: 0.6

The listing, repeating the preview:
CLCN7 #1 → lactate per cell, drug vs no drug: 0.8
CLCN7 #2 → lactate per cell, drug vs no drug: 0.6
CLCN7 #3 → lactate per cell, drug vs no drug: 0.6
CLCN7 #4 → lactate per cell, drug vs no drug: 0.7
PPHLN1 #1 → lactate per cell, drug vs no drug: 0.54 (active)
PPHLN1 #2 → lactate per cell, drug vs no drug: 0.8
PPHLN1 #3 → lactate per cell, drug vs no drug: 0.66
PPHLN1 #4 → lactate per cell, drug vs no drug: 0.52 (active)
NFASC #1 → lactate per cell, drug vs no drug: 0.63
NFASC #2 → lactate per cell, drug vs no drug: 0.4 (active)
NFASC #3 → lactate per cell, drug vs no drug: 0.33 (active)
NFASC #4 → lactate per cell, drug vs no drug: 0.35 (active)
HNRNPF #1 → lactate per cell, drug vs no drug: 1.19
HNRNPF #2 → lactate per cell, drug vs no drug: 0.82
HNRNPF #3 → lactate per cell, drug vs no drug: 0.67
HNRNPF #4 → lactate per cell, drug vs no drug: 0.6
CCDC3 #1 → lactate per cell, drug vs no drug: 0.64
CCDC3 #2 → lactate per cell, drug vs no drug: 0.75
CCDC3 #3 → lactate per cell, drug vs no drug: 0.77
CCDC3 #4 → lactate per cell, drug vs no drug: 0.64
FZD7 #1 → lactate per cell, drug vs no drug: 0.94
FZD7 #2 → lactate per cell, drug vs no drug: 0.7
FZD7 #3 → lactate per cell, drug vs no drug: 0.66
FZD7 #4 → lactate per cell, drug vs no drug: 0.44 (active)
IMP4 #1 → lactate per cell, drug vs no drug: 0.06 (active)
IMP4 #2 → lactate per cell, drug vs no drug: 0.64
IMP4 #3 → lactate per cell, drug vs no drug: 0.28 (active)
IMP4 #4 → lactate per cell, drug vs no drug: 1.18
